Experimental data published in publication PMC6488192 (2019).
No constants are given. Whether binding was seen depends on the method and setting. In cells and extracts the contact can be indirect. Some binding calls cover weakened binding; strength is not graded here. For part of these data: Sequences can lack the tags named with a protein.

Legend:
[1] = biological target: T1, ^H2F1 wild type with TAP tag (T. brucei) (UniProt Q585P3); experiment: pull-down; TAP-tagged bait recovered on Dynabeads IgG from whole-cell or mitochondria-enriched T. brucei extract (~2 mg protein, with RNase inhibitor); washes 150 mM NaCl, 1 mM EDTA, 10 mM MgOAc, 0.1% NP-40, 25 mM Tris pH 8.0; endogenous partners by Western blot, REL1 by radiolabelled self-adenylation; mutants normalised to WT
T1 sequence: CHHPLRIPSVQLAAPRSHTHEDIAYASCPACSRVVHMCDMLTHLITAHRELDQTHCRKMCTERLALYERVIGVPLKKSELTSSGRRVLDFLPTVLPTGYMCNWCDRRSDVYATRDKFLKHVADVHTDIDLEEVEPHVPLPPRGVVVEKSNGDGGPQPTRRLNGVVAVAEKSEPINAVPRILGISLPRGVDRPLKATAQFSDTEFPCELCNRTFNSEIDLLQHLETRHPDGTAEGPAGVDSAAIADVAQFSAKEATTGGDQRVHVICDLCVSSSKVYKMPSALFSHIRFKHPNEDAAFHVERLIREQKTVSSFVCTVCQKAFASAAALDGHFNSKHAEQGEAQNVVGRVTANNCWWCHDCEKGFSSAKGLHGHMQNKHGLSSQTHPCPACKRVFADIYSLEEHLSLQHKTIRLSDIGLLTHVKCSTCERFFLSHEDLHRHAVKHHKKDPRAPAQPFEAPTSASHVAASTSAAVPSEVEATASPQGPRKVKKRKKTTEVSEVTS

[2] = biological target: RNA Editing Helicase 2 (REH2) wild type with TAP tag (T. brucei) (UniProt Q581T1); experiment: as above
[3] = biological target: T1, ^H2F1 wild type with TAP tag (T. brucei); experiment: as above; remark: listed apart in the source
[4] = biological target: REH2 ΔAOB with TAP tag (T. brucei) (UniProt Q581T1); experiment: as above
[5] = biological target: REH2 ΔOB with TAP tag (T. brucei) (UniProt Q581T1); experiment: as above
[6] = biological target: T1, ^H2F1 wild type with TAP tag (T. brucei); experiment: pull-down; IgG pulldown of TAP-tagged ^H2F1 from extract treated with RNase A/T1 mix, 20 U/mg protein in the input extract and again on the beads; Western blot

Measured: binding

RNA Editing Helicase 2 (REH2), endogenous (from UniProt Q581T1 31-2167) (enzyme)
binds: [1]

B1: REH2-Associated Factor 1 (^H2F1), endogenous (protein, UniProt Q585P3 23-524)
chain: CHHPLRIPSVQLAAPRSHTHEDIAYASCPACSRVVHMCDMLTHLITAHRELDQTHCRKMCTERLALYERVIGVPLKKSELTSSGRRVLDFLPTVLPTGYMCNWCDRRSDVYATRDKFLKHVADVHTDIDLEEVEPHVPLPPRGVVVEKSNGDGGPQPTRRLNGVVAVAEKSEPINAVPRILGISLPRGVDRPLKATAQFSDTEFPCELCNRTFNSEIDLLQHLETRHPDGTAEGPAGVDSAAIADVAQFSAKEATTGGDQRVHVICDLCVSSSKVYKMPSALFSHIRFKHPNEDAAFHVERLIREQKTVSSFVCTVCQKAFASAAALDGHFNSKHAEQGEAQNVVGRVTANNCWWCHDCEKGFSSAKGLHGHMQNKHGLSSQTHPCPACKRVFADIYSLEEHLSLQHKTIRLSDIGLLTHVKCSTCERFFLSHEDLHRHAVKHHKKDPRAPAQPFEAPTSASHVAASTSAAVPSEVEATASPQGPRKVKKRKKTTEVSEVTS
not listed: [1]
binds: all other assays above
